No constants are given. Whether binding was seen depends on the method and setting. In cells and extracts the contact can be indirect. These calls come from enrichment with a bait or labelling near it, and not all partners need be listed.
Target: HSPA8 (heat shock cognate 70 kDa protein) (mouse (endogenous in mouse testis)) (UniProt P63017)
Assay: affinity purification with mass spectrometry; IP with HSPA8 antibody from mouse testis lysate, LC-MS

Amino acid sequences for entries named in this document (tags omitted).
UniProt P63017: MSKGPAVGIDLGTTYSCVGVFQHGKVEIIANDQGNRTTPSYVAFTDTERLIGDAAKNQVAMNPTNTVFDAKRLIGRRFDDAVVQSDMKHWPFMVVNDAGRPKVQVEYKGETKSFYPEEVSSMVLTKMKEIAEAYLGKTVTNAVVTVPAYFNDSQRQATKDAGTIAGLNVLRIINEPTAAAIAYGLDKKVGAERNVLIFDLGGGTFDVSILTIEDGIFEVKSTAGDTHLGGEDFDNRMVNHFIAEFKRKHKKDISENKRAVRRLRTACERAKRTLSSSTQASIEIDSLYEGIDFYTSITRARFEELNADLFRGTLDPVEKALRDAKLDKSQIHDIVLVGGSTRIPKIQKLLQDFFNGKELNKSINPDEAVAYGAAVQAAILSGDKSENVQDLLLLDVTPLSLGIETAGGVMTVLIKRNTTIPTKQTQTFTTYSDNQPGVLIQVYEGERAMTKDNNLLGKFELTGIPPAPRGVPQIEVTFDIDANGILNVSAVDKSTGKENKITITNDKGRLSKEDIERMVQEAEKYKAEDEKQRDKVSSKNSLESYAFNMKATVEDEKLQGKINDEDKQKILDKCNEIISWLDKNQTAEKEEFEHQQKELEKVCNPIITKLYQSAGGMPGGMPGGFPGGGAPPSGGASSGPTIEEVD

binding: binds
B1: Spermatogenesis Associated 6 (SPATA6) (protein, UniProt Q3U6K5 18-488)
chain: VTCPGVVLKDKEDIYLSICVFGQYKKTQCVPATFPLVFNARMVFEKVFPEAVDPGDVVAQLEYDTAVFELIQLVPPVGETLSTYDENTRDFMFPGPNQMSGHHDSNRQVTMRRISGLRGIAPKLEFSTTSVITECLISSRKCRTQDKFTYHSAPVEKSHGRLQCRTSRSQKKKSKSPERSKYCINTKNYEQPTISSKSHSPSPYTKRRMCELSEDTRRRLAHLNLGPYEFKKETDKPPFVIRHVDPPSPRTDNFFGSPGRDCERDGWVRMHSDHPHIGCCRSKDYKVIRSPHGRDFEDPFERCEEYLSPRTCSKPQHSARTLLVHSAPSTTPKHCASPVLNRASLRERFHSDWCSPPNCDEIHDRVKDVLKSHQAHARHLCDERDPEREDELELKRSLLYRDSAYDSDPEYSSFQRPRGSFHLDDGECWSNRAASCKGKSHRPVFENSMDKMYRNLYKKACSSVSHTQESF

From article PMC11015022
